Measured values reported in paper PMC7565110.
Results are given in words; binding and its absence hold for the method and conditions named. In cells and extracts the contact can be indirect. Some binding calls cover weakened binding; strength is not graded here. Sequences can lack the tags named with a protein.

T1: glucose transporter-4 (Glut-4) (mouse (endogenous in mouse heart)) (UniProt P14142)
T1 sequence: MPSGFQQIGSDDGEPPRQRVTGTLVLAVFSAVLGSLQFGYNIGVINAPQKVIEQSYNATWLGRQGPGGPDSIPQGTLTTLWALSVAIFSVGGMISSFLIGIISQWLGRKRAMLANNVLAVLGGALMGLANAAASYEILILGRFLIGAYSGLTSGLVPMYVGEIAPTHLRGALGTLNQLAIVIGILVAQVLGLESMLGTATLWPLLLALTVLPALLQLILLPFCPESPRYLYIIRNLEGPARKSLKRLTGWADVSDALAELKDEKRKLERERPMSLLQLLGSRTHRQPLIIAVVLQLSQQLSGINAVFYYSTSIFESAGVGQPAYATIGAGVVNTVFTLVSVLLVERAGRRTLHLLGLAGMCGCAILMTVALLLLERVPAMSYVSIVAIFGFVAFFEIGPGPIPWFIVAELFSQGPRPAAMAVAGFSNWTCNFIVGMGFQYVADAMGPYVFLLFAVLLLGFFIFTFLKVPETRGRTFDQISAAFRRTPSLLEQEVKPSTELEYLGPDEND

T2: Tumor susceptibility gene 101 (Tsg101) (mouse (endogenous in mouse heart)) (UniProt Q61187)
T2 sequence: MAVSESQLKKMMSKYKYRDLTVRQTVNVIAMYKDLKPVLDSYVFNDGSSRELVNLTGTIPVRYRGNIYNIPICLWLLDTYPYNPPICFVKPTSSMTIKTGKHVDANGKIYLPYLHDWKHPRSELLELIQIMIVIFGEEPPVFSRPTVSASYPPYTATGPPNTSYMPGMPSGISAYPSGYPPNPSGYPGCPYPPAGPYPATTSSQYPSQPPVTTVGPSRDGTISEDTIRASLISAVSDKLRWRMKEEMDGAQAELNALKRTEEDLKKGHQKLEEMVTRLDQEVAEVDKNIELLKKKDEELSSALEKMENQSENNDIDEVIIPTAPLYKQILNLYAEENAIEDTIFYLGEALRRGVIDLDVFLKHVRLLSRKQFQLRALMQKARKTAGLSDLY


Experiments:
[1] = biological target: T1, glucose transporter-4 (Glut-4) (mouse (endogenous in mouse heart)); assay: co-IP; mouse heart homogenates (pre- and post-ischemia, ex vivo 45-min ischemia) in NP40 lysis buffer, pre-cleared with protein A/G-agarose, 1 ug primary antibody (anti-Glut-4 or anti-Tsg101) at 4 °C overnight, 5 washes, immunoblot for the partner
[2] = biological target: T2, Tumor susceptibility gene 101 (Tsg101) (mouse (endogenous in mouse heart)); assay: as above

Row | binding [1] | binding [2] | Binder
1 | binds | – | Tumor susceptibility gene 101 (Tsg101) (protein, UniProt Q61187 1-391) MAVSESQLKKMMSKYKYRDLTVRQTVNVIAMYKDLKPVLDSYVFNDGSSRELVNLTGTIPVRYRGNIYNIPICLWLLDTYPYNPPICFVKPTSSMTIKTGKHVDANGKIYLPYLHDWKHPRSELLELIQIMIVIFGEEPPVFSRPTVSASYPPYTATGPPNTSYMPGMPSGISAYPSGYPPNPSGYPGCPYPPAGPYPATTSSQYPSQPPVTTVGPSRDGTISEDTIRASLISAVSDKLRWRMKEEMDGAQAELNALKRTEEDLKKGHQKLEEMVTRLDQEVAEVDKNIELLKKKDEELSSALEKMENQSENNDIDEVIIPTAPLYKQILNLYAEENAIEDTIFYLGEALRRGVIDLDVFLKHVRLLSRKQFQLRALMQKARKTAGLSDLY
2 | binds | – | Tsg101 in hearts of mice with heart-specific overexpression of Tsg101 (Tsg101-TG) (protein, UniProt Q61187 1-391) MAVSESQLKKMMSKYKYRDLTVRQTVNVIAMYKDLKPVLDSYVFNDGSSRELVNLTGTIPVRYRGNIYNIPICLWLLDTYPYNPPICFVKPTSSMTIKTGKHVDANGKIYLPYLHDWKHPRSELLELIQIMIVIFGEEPPVFSRPTVSASYPPYTATGPPNTSYMPGMPSGISAYPSGYPPNPSGYPGCPYPPAGPYPATTSSQYPSQPPVTTVGPSRDGTISEDTIRASLISAVSDKLRWRMKEEMDGAQAELNALKRTEEDLKKGHQKLEEMVTRLDQEVAEVDKNIELLKKKDEELSSALEKMENQSENNDIDEVIIPTAPLYKQILNLYAEENAIEDTIFYLGEALRRGVIDLDVFLKHVRLLSRKQFQLRALMQKARKTAGLSDLY
3 | – | binds | glucose transporter-4 (Glut-4) (protein, UniProt P14142 1-509) MPSGFQQIGSDDGEPPRQRVTGTLVLAVFSAVLGSLQFGYNIGVINAPQKVIEQSYNATWLGRQGPGGPDSIPQGTLTTLWALSVAIFSVGGMISSFLIGIISQWLGRKRAMLANNVLAVLGGALMGLANAAASYEILILGRFLIGAYSGLTSGLVPMYVGEIAPTHLRGALGTLNQLAIVIGILVAQVLGLESMLGTATLWPLLLALTVLPALLQLILLPFCPESPRYLYIIRNLEGPARKSLKRLTGWADVSDALAELKDEKRKLERERPMSLLQLLGSRTHRQPLIIAVVLQLSQQLSGINAVFYYSTSIFESAGVGQPAYATIGAGVVNTVFTLVSVLLVERAGRRTLHLLGLAGMCGCAILMTVALLLLERVPAMSYVSIVAIFGFVAFFEIGPGPIPWFIVAELFSQGPRPAAMAVAGFSNWTCNFIVGMGFQYVADAMGPYVFLLFAVLLLGFFIFTFLKVPETRGRTFDQISAAFRRTPSLLEQEVKPSTELEYLGPDEND
